Laboratory results from PubChem BioAssay AID1794845 (National Center for Advancing Translational Sciences (NCATS), 2023).
The campaign covered roughly 6,900 compounds. Fewer than 10 were called active. The call rests on the fitted dose curve; in most records, active means well fitted curve in the direction sought with a large enough effect; inconclusive means small, poorly fitted or top-dose-only effect, or another doubt; inactive means no such curve, though single readings can be large or run the other way. Some of the results follow.

Amino acid sequences for entries named in this document (tags omitted). A change or cut given only in a name is not applied to a line headed by its entry.
UniProt C7C422: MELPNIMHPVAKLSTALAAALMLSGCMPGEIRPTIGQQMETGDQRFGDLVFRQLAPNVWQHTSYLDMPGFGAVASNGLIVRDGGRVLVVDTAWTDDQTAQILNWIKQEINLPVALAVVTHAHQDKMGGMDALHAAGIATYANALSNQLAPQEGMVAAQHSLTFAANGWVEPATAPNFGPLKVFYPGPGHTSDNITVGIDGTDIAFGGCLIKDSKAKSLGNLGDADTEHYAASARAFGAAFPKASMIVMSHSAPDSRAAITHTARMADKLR

Target: Metallo-beta-lactamase type 2 (Klebsiella pneumoniae) (UniProt C7C422)
Experiment: qHTS to identify inhibitors of the New Delhi Metallo-beta-lactamase (NDM): primary screen against the NCATS Gemini Collection; further: % of control where 0% means no effect
Settings: NDM-1 enzyme, meropenem hydrolysis, absorbance 300 nm; at 38.4 µM (top of the series) unless noted
Excerpt: Assay Submitter (PI): James Inglese Ph.D., Patricia Dranchak Ph.D., Mahesh Aitha Ph.D. Assay Development and Screening Technology Laboratory (ADST) National Center for Advancing Translational Sciences (NCATS), Rockville, MD National Institute of Health (NIH), Bethesda, Maryland The metallo-beta-lactamases (MBL) are a main antibiotic resistance mechanism evolved by bacteria. There is an urgent clinical need for MBL inhibitors to mitigate this growing threat. To support a machine-based learning study, qHTS has been used to experimentally test inhibitors identified by prediction tools.
PROTOCOL TABLE (as described by Inglese et al., 2007) SEQUENCE No. (e.g., 1, 2, 3, etc.); […] (e.g., enzyme, Incubation, Reagent, etc.); VALUE; DESCRIPTION 1; NDM-1; 4 uL of 3 nM enzyme [2 nM final] in 50 mM HEPES (pH 7.0), 1 uM […], 0.01% Tween20; Use BioRaptr to dispense into Aurora black, clear bottom low base 1536-well plates 2; Compounds; 23 nL; Use Pin Tool (Wako) to transfer DMSO control and library compounds in DMSO 3; Incubate; >30 min 4; Reagent; 2 uL of 150 uM meropenem [50 uM final] 5; Incubate; 30 min. 6; Detector; Absorbance at 300 nm (bandwidth = 5 nm, 25 flashes/well) on Tecan Infinity NOTES (numbers refer to sequence above) 1; Column 1 of each plate received assay buffer without enzyme and columns 2-48 received enzyme for a final assay concentration of 2 nM. 2; Control plate contained DMSO in columns 1, 2, 3, and 4. 3; Compound interaction with enzyme. 4; Meropenem substrate was prepared in the same assay buffer as step 1 for a final assay concentration of 50 uM and added to all wells across the assay plates. 5; Substrate interaction with enzyme, plateau phase of kinetics. 6; Default reader settings were applied for absorbance read at 300 nm, bandwidth = 5 nm, 25 flashes/well. References: Inglese J, Shamu CE, Guy RK. 2007. Reporting data from high-throughput screening of small-molecule libraries. Nat Chem Biol. doi:10.1038/nchembio0807-438 Yasgar A, Shinn P, Jadhav A, Auld D, Michael S, Zheng W, Austin CP, Inglese J, Simeonov A. 2008. Compound Management for Quantitative High-Throughput Screening. J Lab Autom 13:79 - 89. doi:10.1016/j.jala.2007.12.004

Activity % (negative = inhibition), inactive:
Cc1ncccc1C(=O)N1C[C@H]2OC(=O)N(CCc3cccc(Cl)c3)[C@H]2C1 2.85%, COc1cccn(CC(=O)N2CCN(c3ccccc3C#N)CC2)c1=O 6.61%, CCCS(=O)(=O)N1CCC2(CC1)c1[nH]c3ccccc3c1CCN2C -0.435%, N#Cc1cccc(C(=O)N2CCCCC2CCn2cc(-c3ccccc3)nn2)c1 (stereo not given) -0.239%, Cn1c(Cn2cccn2)nnc1C1CCCN(C(=O)c2ccoc2)C1 (stereo not given) -1.41%, CN(CC1CCOCC1)C(=O)c1ccsc1 6.56%, O=C(NC1CCCN(c2ccc3nnc(-c4ccccc4)n3n2)C1)c1ccc(F)cc1 (stereo not given) -6.46%, Cc1ccc(CNC(=O)N2CCCC(c3nn[nH]n3)C2)cc1 (stereo not given) 3.32%, N#Cc1cccc(-c2cn3c(n2)N(C(=O)c2ccccc2F)CCC3)c1 6.36%, COc1coc(C(=O)NCCC2CN(c3cnn(C)c(=O)c3)CCO2)cc1=O (stereo not given) 5.77%, O=C(NCCc1ccccn1)c1ccc(OC2CCNCC2)nc1 91.1%, Cc1ccc(CN2CC(N(CC3CC3)C3CCOCC3)C2)cc1 0.279%, COCCCNC(=O)c1ccc2nnc(Cc3ccc(Cl)cc3)n2c1 10.6% [at 57.5 µM], CCCn1cc(NC(=O)C[C@H]2NC(=O)c3ccccc3NC2=O)c(C)n1 0.548%, O=C(NC1CCCC1)N1CCCC(C(=O)N2CCC(c3nc4ncccc4[nH]3)C2)C1 (stereo not given) 7.24%, O=C([C@@H]1CNC[C@H](C(=O)N2CCN(c3nccs3)CC2)C1)N1CCCC1 3.77%, Cc1nnc2n1CCC(NS(=O)(=O)c1ccccc1F)CC2 (stereo not given) -0.503%, O=C(c1csc(-c2cccs2)n1)N1CCC2(CCCO2)CC1 19.6%, Cc1cnc(CC2CCCN(S(=O)(=O)c3ccccc3)C2)n1CC1CC1 (stereo not given) 9.97%, Cc1ccc(C)c(NC(=O)CN2C(=O)C(c3ccccc3)=NC23CCCC3)c1 1%, COCC1(c2nc(C3CCOCC3)nn2-c2ccccc2)CCC1 5.86%, Cc1ccc(C)c(NC(=O)N2C[C@H](c3nc(-c4cccnc4)no3)[C@@H](C)C2)c1 -2.45%, CN(CC[C@H]1CN(C(=O)Cc2cccs2)CC[C@H]1CC(=O)O)c1ccccc1 14.6% [at 57.5 µM], CN(C)c1ccc(C(=O)N2CCN3C(=O)N(CC(N)=O)C(=O)[C@@H]3C2)cc1 10.1% [at 57.5 µM], C=CCNC(=O)C(NC(=O)c1cccs1)C1CCN(C(=O)c2ccc(F)cc2)CC1 (stereo not given) 4.52%
